The structures appear in SMILES notation. ± gives the standard deviation of the averaged measurements. This list holds what a sample rich in lowest values left over.

In this experiment the test system is TE10. Description: relative cell viability vs DMSO, compound + 0.2 uM CuET (fraction); TE10 is an esophageal squamous carcinoma line; higher = less cytotoxic. The conditions noted are these: 2 µM; co-treatment: CuET (bis(diethyldithiocarbamate)copper) 0.2 uM; 48 h. The protocol: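 TE10 ESCC cells (1,000/well, 384-well plates) were treated with Selleck bioactive library compounds at 2 uM combined with 0.2 uM CuET (copper diethyldithiocarbamate) for 48 h. Viability was read by CellTiter-Glo and expressed relative to DMSO wells. Two technical replicates (A, B).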
With `O=C(O)C1=C[C@@H](O)[C@@H](O)[C@H](O)C1` [Shikimic Acid], the relative cell viability was 1.1 ± 0.056.

The values are drawn from the supplement of paper PMC10670038.
